According to US20080206287A1, “Use of cyclosporin A to sensitize resistant cancer cells to death receptor ligands” (priority 2006, published 2008):
Some entries share one result that the patent states for a list of compounds.

Test system: PPC-1 cells
Assay: PPC-1 cell viability (MTT) with or without CH-11 anti-FAS antibody
Type: cell-based
Settings: combined with CH-11
Procedure: High throughput screening. Screens were performed using a fully integrated, programmable robotic liquid handling system (Biomek® FX, Beckman-Coulter Inc., Fullerton, Calif.), with integrated plate reader (LJL analyst HT 96-384, Sunnyvale, Calif.) and environmentally controlled plate carousel set at 37° C. and 5% CO2:95% air. PPC-1 cells (1×10^4) were seeded overnight into 96 well, flat-bottom plates (Costar, Cambridge, Mass.) in 100 μL of medium containing 2.5% FCS. The next day, aliquots from the 50,000 compound Diversa library were added at a final concentration of 7.5 μg/mL (about 25 μM) in a final concentration of 0.5% (v:v) dimethylsulfoxide (DMSO). […]
Cell death assays. Cell viability was measured by MTT and MTS assays, essentially as described in Schimmer et al. (Cancer Cell 5:25-35, 2004). Absorbance readings were plotted against a standard curve to derive the corresponding cell number, and cell viability was expressed as a percentage relative to untreated cells. Apoptosis was measured by flow cytometric analysis of Annexin V surface expression after staining cells with FITC-anti-Annexin V and propidium iodide (PI) (Biovision, Mountain View, Calif.), as described in Pedersen et al. (Blood 100:2965-72, 2002). […]
Identification of small molecule FAS sensitizers. […] Cell viability was measured 24 hours later by MTT assay. […]

O=C(Cc1ccc(Cl)cc1)N1CCN(C/C=C/c2ccccc2)CC1 [compound 5703229, 1-[(4-chlorophenyl)acetyl]-4-[(2e)3-phenylprop-2-enyl]piperazine]
synergy with CH-11, median-dose combination index (CI): < 1
